Assay [1] deals with BioID2-tagged PRAME (human) (UniProt P78395). Put plainly: proximity labelling; BioID2-tagged PRAME expressed in Mel290 cells; biotinylation induced with 30 µM biotin over 5 days; pull down and mass spectrometry.
The target of assay [2] is T1, SMC1A (human (endogenous in Mel290)) (UniProt Q14683).
T1 sequence: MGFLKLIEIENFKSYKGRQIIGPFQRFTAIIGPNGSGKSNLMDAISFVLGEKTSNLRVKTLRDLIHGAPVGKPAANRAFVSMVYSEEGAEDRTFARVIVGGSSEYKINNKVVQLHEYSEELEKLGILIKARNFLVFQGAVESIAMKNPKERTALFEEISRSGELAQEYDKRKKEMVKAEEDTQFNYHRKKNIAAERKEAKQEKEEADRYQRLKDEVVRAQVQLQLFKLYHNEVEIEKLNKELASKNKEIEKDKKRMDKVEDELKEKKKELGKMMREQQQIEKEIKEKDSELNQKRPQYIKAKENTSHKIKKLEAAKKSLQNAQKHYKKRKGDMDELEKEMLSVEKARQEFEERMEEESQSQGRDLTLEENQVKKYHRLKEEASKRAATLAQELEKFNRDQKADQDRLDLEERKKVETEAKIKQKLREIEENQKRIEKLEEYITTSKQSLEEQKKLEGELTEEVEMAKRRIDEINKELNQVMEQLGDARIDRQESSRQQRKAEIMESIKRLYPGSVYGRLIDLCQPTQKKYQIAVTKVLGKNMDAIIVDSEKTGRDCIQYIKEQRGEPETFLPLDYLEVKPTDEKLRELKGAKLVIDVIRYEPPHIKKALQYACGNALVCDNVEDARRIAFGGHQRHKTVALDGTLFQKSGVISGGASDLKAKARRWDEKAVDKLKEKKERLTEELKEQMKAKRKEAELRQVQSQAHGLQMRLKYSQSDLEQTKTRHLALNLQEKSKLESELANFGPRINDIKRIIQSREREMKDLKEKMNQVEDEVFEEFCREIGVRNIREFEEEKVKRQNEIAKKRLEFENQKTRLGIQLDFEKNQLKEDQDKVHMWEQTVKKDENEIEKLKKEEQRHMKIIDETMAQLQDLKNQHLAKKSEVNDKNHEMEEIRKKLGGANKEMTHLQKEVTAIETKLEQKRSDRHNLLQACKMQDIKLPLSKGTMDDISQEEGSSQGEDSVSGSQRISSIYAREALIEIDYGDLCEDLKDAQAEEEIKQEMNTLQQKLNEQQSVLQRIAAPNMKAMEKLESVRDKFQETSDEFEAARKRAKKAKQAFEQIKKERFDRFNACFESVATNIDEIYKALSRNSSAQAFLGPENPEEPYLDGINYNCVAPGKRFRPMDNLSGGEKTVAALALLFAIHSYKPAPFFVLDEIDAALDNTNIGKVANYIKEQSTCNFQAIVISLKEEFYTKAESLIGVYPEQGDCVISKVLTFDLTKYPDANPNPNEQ
Put plainly: affinity purification with mass spectrometry; endogenous SMC1A immunoprecipitated (10 µg SMC1a antibody, Protein A Dynabeads) from Mel290 lysate with or without induction of PRAME; mass spectrometry.

The chains behind the UniProt entries cited, without tags or fusion partners.
UniProt P78395: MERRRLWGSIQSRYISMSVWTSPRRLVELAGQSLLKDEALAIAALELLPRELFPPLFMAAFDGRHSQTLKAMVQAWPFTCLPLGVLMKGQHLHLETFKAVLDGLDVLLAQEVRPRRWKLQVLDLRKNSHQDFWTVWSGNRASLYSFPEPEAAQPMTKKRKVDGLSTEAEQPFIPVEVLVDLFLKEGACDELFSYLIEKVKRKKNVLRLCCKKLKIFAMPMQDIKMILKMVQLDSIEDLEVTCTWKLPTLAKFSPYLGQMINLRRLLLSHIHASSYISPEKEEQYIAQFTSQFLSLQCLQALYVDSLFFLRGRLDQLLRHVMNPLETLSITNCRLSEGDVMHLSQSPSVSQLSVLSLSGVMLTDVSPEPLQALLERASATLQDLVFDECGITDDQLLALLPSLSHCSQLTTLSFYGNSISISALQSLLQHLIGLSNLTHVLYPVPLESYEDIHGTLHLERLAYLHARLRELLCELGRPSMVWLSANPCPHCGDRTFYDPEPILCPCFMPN
UniProt Q7Z6Z7: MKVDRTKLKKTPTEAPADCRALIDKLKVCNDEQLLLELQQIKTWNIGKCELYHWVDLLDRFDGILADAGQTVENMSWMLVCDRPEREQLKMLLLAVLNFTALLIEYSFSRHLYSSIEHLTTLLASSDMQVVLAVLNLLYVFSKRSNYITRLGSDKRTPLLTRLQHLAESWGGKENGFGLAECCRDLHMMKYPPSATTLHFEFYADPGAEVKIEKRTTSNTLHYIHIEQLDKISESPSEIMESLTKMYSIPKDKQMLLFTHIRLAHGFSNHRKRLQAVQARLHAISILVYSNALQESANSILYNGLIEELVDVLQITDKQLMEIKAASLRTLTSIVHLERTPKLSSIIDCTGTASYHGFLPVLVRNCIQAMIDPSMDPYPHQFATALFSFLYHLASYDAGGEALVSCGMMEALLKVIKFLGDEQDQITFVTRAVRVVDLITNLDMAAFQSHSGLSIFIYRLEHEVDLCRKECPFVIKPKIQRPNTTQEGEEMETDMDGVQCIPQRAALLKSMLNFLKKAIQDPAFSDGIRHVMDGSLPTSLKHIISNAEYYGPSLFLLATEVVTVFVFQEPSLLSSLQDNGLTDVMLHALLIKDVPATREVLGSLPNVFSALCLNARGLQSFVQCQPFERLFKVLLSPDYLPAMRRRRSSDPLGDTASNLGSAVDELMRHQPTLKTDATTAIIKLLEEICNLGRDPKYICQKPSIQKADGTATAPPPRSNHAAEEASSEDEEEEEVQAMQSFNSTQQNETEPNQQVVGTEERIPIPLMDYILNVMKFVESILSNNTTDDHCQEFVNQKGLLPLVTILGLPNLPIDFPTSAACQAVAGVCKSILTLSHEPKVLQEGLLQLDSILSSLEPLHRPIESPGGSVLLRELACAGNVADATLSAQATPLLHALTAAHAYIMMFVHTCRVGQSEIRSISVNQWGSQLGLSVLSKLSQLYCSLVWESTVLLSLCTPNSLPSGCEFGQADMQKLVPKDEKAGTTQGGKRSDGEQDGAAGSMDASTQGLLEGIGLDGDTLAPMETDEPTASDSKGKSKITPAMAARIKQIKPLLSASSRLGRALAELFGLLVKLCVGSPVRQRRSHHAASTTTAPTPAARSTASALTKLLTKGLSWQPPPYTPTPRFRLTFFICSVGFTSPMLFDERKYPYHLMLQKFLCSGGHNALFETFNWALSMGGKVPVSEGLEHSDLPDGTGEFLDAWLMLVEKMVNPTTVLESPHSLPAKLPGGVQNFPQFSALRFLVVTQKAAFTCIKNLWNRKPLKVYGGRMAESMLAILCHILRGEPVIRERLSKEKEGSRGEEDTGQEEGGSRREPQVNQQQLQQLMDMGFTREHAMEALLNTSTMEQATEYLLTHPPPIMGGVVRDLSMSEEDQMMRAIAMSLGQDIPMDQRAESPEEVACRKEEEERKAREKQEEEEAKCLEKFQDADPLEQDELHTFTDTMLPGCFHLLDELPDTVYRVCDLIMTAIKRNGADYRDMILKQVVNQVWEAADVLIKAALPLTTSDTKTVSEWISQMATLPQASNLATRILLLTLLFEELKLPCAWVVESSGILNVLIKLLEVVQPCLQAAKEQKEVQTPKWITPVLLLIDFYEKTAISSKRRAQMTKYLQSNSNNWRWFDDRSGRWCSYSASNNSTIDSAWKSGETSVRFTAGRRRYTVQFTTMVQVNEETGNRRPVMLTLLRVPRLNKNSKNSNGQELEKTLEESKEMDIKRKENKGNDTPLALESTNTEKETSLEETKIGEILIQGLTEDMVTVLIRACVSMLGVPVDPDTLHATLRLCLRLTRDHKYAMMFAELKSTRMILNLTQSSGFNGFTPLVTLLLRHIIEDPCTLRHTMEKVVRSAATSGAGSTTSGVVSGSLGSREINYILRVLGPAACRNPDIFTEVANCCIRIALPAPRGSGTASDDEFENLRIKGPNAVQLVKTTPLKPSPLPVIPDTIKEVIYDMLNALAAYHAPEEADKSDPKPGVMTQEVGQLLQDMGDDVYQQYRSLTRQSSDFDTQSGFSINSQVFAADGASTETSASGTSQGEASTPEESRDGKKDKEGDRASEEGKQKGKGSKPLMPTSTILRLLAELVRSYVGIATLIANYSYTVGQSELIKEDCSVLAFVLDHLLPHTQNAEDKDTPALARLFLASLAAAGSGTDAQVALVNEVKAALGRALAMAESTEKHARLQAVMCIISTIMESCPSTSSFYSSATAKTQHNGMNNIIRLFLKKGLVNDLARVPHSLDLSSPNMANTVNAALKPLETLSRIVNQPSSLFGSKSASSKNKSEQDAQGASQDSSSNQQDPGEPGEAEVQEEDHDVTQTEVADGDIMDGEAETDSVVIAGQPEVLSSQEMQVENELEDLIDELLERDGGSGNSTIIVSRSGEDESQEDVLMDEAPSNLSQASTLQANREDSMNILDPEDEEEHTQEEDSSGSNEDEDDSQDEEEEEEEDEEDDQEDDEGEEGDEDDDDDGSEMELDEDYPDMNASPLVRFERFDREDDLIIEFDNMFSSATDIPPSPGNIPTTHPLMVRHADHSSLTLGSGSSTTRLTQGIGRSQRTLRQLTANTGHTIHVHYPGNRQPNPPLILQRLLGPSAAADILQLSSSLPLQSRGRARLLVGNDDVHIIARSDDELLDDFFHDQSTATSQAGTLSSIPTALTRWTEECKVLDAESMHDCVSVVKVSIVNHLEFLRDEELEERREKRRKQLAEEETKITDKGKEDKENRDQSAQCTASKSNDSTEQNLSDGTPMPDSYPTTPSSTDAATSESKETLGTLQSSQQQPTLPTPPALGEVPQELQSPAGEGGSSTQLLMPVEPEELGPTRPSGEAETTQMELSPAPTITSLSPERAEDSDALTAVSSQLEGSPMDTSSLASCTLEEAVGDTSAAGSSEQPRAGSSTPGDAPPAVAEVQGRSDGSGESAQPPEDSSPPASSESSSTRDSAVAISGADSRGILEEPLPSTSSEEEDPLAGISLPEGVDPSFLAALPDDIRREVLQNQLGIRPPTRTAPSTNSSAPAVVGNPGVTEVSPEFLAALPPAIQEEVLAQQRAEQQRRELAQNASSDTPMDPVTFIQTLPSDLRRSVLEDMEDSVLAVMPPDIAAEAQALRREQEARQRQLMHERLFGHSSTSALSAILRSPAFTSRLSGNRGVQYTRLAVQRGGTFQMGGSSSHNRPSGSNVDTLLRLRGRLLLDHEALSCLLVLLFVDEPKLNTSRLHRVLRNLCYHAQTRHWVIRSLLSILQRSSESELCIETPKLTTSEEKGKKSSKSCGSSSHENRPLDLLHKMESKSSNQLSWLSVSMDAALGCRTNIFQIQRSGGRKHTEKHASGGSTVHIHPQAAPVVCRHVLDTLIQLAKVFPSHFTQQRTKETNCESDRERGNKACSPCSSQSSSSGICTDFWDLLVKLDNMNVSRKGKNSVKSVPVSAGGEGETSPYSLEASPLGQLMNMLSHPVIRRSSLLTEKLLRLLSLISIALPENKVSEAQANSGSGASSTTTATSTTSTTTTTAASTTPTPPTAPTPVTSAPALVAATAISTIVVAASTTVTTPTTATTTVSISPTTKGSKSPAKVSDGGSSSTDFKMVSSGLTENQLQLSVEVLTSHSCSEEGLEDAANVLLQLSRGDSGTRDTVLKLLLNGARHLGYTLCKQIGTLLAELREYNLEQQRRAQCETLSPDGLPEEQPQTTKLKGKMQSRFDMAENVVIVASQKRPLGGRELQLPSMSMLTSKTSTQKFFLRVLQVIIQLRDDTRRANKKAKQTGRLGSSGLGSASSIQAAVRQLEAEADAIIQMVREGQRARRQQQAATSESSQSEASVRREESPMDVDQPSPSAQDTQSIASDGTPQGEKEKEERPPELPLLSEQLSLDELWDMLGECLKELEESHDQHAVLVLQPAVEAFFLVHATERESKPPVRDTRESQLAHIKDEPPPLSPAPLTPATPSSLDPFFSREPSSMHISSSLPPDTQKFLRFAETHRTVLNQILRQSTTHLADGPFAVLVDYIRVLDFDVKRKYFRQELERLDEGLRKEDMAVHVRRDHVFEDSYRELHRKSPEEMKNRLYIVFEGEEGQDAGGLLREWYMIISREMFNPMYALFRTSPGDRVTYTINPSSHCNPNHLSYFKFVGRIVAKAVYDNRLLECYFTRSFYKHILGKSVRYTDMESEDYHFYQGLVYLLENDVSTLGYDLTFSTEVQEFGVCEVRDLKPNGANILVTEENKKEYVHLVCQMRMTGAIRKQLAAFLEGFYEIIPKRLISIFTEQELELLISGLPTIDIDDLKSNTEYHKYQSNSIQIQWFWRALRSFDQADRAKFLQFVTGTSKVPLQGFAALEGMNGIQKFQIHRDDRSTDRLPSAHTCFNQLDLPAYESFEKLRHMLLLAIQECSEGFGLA
UniProt Q8N3U4: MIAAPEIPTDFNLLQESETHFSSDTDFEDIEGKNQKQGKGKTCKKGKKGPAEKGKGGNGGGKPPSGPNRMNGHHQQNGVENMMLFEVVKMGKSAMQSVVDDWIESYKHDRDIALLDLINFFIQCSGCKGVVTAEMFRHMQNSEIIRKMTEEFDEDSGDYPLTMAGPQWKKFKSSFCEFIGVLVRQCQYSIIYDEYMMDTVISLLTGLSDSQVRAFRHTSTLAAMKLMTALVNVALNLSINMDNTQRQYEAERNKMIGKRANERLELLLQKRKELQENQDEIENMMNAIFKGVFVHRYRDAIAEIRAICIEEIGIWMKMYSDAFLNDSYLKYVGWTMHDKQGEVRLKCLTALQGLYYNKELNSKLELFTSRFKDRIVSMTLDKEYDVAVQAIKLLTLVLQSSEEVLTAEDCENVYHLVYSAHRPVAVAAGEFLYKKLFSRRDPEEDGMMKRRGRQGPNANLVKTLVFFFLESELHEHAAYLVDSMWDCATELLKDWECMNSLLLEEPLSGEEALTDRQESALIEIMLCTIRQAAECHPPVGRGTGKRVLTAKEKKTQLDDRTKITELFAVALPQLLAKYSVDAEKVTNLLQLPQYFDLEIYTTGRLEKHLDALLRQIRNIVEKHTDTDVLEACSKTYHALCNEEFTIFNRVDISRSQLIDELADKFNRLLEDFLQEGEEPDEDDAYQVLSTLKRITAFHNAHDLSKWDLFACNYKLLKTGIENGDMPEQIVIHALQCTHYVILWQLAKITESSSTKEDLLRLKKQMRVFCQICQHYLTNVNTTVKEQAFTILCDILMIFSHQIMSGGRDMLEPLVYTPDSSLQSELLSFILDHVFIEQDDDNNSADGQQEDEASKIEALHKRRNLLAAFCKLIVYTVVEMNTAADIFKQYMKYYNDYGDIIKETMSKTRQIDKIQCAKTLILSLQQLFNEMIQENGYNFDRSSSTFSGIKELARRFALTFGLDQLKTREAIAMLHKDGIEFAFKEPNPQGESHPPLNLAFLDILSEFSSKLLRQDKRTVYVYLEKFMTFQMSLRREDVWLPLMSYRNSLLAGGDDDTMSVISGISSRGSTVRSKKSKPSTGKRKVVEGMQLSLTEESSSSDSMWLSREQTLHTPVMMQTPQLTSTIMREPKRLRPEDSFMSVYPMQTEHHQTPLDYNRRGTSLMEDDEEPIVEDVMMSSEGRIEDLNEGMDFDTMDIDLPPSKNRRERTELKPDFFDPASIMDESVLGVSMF

No constants are given. Whether binding was seen depends on the method and setting. In cells and extracts the contact can be indirect. Here binding means that the protein was enriched with, or labelled near, the bait; the list need not be complete.

On to HUWE1 (from UniProt Q7Z6Z7 1-4374), for which the binding result in assay [1] is reported as “binds”.
Still for that read-out and setting: the result for SMHD1 (from UniProt A6NHR9 1-2005) reads “binds”.
STAG2 (from UniProt Q8N3U4 1-1231): in assay [2], the binding entry is given as “binds”.

B1: NUP107 (protein, UniProt P57740 1-925)
chain: MDRSGFGEISSPVIREAEVTRTARKQSAQKRVLLQASQDENFGNTTPRNQVIPRTPSSFRQPFTPTSRSLLRQPDISCILGTGGKSPRLTQSSGFFGNLSMVTNLDDSNWAAAFSSQRSGLFTNTEPHSITEDVTISAVMLREDDPGEAASMSMFSDFLQSFLKHSSSTVFDLVEEYENICGSQVNILSKIVSRATPGLQKFSKTASMLWLLQQEMVTWRLLASLYRDRIQSALEEESVFAVTAVNASEKTVVEALFQRDSLVRQSQLVVDWLESIAKDEIGEFSDNIEFYAKSVYWENTLHTLKQRQLTSYVGSVRPLVTELDPDAPIRQKMPLDDLDREDEVRLLKYLFTLIRAGMTEEAQRLCKRCGQAWRAATLEGWKLYHDPNVNGGTELEPVEGNPYRRIWKISCWRMAEDELFNRYERAIYAALSGNLKQLLPVCDTWEDTVWAYFRVMVDSLVEQEIQTSVATLDETEELPREYLGANWTLEKVFEELQATDKKRVLEENQEHYHIVQKFLILGDIDGLMDEFSKWLSKSRNNLPGHLLRFMTHLILFFRTLGLQTKEEVSIEVLKTYIQLLIREKHTNLIAFYTCHLPQDLAVAQYALFLESVTEFEQRHHCLELAKEADLDVATITKTVVENIRKKDNGEFSHHDLAPALDTGTTEEDRLKIDVIDWLVFDPAQRAEALKQGNAIMRKFLASKKHEAAKEVFVKIPQDSIAEIYNQCEEQGMESPLPAEDDNAIREHLCIRAYLEAHETFNEWFKHMNSVPQKPALIPQPTFTEKVAHEHKEKKYEMDFGIWKGHLDALTADVKEKMYNVLLFVDGGWMVDVREDAKEDHERTHQMVLLRKLCLPMLCFLLHTILHSTGQYQECLQLADMVSSERHKLYLVFSKEELRKLLQKLRESSLMLLDQGLDPLGYEIQL
On to B1, for which the binding result in assay [1] is “binds”.

Values taken from paper PMC10873199.
